Reference: PMC6535062
No constants are given. Whether binding was seen depends on the method and setting. Binding seen in cells or lysates may run through a third protein. Some binding calls cover weakened binding; strength is not graded here.

By UniProt entry, the sequences of proteins in these tests, tags left out. Residues count along the entry.
UniProt Q04912, residues 25-1400: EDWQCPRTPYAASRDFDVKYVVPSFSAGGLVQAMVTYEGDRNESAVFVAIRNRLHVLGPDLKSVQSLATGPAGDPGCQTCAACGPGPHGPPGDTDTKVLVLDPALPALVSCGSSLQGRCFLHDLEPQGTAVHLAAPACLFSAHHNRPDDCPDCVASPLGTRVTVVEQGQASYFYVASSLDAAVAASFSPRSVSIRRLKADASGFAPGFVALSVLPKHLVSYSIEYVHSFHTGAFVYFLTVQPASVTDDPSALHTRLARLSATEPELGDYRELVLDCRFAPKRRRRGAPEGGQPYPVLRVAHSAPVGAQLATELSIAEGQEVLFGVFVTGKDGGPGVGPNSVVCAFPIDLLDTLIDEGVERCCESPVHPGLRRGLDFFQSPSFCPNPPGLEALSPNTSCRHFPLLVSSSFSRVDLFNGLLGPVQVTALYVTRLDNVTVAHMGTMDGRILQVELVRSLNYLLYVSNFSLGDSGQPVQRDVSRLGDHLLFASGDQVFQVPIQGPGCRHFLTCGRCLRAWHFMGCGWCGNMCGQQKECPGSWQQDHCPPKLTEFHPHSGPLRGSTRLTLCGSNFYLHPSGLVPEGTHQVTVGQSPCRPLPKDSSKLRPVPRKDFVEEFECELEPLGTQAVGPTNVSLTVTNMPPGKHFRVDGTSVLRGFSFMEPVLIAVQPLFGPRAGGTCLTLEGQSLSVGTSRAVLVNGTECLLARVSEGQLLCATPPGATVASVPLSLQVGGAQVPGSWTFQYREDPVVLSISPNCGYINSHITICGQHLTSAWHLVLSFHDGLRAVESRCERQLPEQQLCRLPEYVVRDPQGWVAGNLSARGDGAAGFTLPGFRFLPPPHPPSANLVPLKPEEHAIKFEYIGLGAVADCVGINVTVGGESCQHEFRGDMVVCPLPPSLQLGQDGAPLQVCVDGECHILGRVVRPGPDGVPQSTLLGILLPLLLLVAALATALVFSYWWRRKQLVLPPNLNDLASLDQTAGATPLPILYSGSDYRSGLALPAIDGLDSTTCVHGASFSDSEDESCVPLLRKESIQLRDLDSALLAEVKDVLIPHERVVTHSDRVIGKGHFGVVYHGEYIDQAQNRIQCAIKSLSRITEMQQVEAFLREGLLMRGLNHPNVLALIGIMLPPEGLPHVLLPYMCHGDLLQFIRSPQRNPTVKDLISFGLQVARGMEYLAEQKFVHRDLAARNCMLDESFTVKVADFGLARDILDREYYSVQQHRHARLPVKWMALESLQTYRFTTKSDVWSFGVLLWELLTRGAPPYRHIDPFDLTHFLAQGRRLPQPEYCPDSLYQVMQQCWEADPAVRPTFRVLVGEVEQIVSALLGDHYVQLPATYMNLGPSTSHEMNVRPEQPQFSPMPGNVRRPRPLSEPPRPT
UniProt Q16665: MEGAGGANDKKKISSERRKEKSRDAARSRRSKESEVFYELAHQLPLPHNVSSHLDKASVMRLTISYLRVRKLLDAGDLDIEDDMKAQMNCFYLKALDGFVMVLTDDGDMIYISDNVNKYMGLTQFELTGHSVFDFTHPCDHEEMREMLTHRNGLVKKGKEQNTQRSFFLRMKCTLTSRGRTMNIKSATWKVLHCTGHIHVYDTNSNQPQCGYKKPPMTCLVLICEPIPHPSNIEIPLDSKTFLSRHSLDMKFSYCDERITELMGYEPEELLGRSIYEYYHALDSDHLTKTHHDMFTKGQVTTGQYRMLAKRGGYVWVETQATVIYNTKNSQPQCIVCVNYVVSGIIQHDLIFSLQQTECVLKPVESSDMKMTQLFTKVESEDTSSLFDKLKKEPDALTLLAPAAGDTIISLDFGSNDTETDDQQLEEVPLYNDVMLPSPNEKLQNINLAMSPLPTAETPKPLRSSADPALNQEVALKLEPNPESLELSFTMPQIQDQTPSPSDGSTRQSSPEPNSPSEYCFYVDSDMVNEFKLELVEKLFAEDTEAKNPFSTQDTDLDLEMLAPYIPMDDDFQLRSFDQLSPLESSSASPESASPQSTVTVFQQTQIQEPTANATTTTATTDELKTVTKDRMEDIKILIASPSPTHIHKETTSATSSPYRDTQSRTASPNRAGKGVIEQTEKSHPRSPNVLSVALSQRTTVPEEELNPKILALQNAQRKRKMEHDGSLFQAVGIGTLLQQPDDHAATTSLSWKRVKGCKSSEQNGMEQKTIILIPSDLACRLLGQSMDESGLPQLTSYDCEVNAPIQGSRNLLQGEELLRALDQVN
UniProt P35222: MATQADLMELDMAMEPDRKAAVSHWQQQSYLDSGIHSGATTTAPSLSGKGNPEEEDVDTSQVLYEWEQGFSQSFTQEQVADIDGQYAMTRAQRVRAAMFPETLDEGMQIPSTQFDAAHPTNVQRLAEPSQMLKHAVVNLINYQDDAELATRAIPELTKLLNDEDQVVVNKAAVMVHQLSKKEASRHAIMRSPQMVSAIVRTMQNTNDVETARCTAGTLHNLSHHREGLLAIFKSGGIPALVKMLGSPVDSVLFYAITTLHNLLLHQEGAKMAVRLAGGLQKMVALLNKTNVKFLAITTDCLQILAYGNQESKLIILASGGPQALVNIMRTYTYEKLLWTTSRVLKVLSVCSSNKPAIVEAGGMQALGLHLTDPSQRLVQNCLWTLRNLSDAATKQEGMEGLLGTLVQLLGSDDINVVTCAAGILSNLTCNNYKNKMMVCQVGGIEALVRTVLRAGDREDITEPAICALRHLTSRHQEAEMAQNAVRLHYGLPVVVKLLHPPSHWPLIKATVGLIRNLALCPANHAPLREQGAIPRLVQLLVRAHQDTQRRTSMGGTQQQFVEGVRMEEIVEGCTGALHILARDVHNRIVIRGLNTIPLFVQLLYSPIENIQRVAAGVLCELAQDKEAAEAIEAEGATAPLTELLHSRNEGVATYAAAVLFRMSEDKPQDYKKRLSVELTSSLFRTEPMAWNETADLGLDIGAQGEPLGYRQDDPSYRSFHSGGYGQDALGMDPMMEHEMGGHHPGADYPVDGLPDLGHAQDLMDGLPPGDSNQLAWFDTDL

Experiments:
[1] = biological target: Recepteur d'Origine Nantais (RON), endogenous in KATOIII cells (human (endogenous in KATOIII)) (UniProt Q04912); assay: co-IP; cytoplasmic proteins of KATOIII cells (NE-PER kit), normoxic and hypoxic (1% O2) conditions; precipitating antibody not told for this experiment
[2] = biological target: Recepteur d'Origine Nantais (RON), endogenous in KATOIII cells (human (endogenous in KATOIII)) (UniProt Q04912); assay: co-IP; nuclear proteins of KATOIII cells (NE-PER kit), normoxic and hypoxic (1% O2) conditions; also after RON or β-catenin siRNA; precipitating antibody not told for this experiment
[3] = biological target: Recepteur d'Origine Nantais (RON), expressed from pcDNA3.1-RON (UniProt Q04912); assay: co-IP; MGC-803 cells transfected with pcDNA3.1-RON or pcDNA3.1-RONΔ160; RIPA lysates incubated with anti-RON, anti-RONΔ160 or IgG overnight, protein A/G beads 3 h at room temperature; Western blot

Substance | binding [1] | binding [2] | binding [3]
hypoxia-inducible factor-1α (from UniProt Q16665 1-826) | no binding (condition: in the cytoplasmic proteins) | binds | –
β-catenin (from UniProt P35222 1-781) | no binding (condition: in the cytoplasmic proteins) | binds | binds
